The values below come from the supplement of paper PMC12819154, “High-throughput peptide-centric local stability assay extends protein–ligand identification to membrane proteins, tissues and bacteria” (Nature Structural & Molecular Biology, 2025).

Sequences of proteins named here, by UniProt entry; tags and fusion partners are left off. A change or cut given only in a name is not applied to a line headed by its entry.
UniProt P58501: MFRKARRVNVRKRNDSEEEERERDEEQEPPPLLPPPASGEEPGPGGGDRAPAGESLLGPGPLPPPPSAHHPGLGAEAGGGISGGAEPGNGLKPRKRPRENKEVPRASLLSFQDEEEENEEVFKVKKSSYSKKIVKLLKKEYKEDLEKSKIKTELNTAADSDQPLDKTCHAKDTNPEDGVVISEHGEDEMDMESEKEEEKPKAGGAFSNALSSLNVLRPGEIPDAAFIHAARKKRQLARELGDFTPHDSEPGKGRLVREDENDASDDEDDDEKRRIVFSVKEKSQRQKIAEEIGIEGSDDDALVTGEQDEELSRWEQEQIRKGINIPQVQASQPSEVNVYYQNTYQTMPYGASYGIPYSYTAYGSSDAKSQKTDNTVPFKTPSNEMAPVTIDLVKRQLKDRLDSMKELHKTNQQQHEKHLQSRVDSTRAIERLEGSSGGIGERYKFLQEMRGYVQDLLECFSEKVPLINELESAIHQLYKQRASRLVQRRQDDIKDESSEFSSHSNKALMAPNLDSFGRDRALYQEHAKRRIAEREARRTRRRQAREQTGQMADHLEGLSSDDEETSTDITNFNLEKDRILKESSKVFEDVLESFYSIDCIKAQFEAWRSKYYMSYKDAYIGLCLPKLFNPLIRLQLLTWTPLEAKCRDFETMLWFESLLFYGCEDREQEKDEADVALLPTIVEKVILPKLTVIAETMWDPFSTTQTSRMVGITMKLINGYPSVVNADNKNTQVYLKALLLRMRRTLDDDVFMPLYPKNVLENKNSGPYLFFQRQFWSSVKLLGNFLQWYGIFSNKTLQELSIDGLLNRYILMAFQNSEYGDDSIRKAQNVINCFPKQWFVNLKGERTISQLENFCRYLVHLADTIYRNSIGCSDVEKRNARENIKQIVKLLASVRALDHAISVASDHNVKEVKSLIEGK
UniProt P56873: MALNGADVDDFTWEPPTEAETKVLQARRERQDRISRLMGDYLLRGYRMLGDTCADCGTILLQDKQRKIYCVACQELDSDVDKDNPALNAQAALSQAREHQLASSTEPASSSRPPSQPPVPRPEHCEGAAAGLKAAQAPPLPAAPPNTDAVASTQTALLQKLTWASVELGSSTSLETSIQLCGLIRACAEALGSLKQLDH
UniProt P54726: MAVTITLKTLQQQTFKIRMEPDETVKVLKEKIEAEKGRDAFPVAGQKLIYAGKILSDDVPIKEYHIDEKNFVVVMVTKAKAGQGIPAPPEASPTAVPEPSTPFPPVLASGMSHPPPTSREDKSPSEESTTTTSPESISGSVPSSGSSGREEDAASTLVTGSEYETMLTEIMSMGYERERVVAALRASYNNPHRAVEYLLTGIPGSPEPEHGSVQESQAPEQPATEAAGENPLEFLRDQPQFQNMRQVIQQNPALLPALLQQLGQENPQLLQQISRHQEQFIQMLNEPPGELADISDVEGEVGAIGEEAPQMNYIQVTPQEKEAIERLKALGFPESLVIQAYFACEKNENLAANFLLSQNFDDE
UniProt P54276: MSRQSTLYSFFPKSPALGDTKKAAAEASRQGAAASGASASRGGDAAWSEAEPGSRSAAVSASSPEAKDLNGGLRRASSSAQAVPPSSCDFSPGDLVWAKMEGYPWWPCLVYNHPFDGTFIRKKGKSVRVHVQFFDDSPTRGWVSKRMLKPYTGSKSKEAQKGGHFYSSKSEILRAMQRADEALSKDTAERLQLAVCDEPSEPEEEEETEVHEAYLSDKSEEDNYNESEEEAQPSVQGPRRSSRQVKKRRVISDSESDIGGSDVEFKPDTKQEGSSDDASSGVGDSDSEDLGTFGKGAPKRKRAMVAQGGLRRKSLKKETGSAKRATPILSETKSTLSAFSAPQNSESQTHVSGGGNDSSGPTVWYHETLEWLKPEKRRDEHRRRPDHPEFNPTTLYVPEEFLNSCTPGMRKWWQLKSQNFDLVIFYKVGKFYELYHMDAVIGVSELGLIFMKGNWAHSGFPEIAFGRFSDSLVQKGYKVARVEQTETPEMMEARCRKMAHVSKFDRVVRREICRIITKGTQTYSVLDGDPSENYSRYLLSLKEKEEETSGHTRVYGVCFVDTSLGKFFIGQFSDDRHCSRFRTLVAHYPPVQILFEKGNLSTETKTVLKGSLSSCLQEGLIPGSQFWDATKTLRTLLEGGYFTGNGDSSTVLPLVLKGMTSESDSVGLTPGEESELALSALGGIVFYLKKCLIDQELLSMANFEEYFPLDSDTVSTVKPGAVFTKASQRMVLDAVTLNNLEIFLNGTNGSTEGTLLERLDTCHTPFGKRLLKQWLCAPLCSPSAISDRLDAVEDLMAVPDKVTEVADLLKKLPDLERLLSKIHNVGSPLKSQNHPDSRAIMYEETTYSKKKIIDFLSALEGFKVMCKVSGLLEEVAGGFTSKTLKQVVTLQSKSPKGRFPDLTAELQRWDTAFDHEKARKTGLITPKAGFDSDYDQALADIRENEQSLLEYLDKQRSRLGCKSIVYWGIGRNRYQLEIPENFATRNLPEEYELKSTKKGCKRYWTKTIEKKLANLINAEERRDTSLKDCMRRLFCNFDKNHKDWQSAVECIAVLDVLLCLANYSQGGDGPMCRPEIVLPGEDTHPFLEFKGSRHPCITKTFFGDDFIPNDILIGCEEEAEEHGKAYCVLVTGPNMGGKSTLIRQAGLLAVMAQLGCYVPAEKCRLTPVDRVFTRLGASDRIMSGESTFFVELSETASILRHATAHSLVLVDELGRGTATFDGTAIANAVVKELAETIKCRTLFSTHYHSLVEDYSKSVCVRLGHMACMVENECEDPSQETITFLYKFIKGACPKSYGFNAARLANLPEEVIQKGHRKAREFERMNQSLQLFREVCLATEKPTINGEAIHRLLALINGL
UniProt P54099: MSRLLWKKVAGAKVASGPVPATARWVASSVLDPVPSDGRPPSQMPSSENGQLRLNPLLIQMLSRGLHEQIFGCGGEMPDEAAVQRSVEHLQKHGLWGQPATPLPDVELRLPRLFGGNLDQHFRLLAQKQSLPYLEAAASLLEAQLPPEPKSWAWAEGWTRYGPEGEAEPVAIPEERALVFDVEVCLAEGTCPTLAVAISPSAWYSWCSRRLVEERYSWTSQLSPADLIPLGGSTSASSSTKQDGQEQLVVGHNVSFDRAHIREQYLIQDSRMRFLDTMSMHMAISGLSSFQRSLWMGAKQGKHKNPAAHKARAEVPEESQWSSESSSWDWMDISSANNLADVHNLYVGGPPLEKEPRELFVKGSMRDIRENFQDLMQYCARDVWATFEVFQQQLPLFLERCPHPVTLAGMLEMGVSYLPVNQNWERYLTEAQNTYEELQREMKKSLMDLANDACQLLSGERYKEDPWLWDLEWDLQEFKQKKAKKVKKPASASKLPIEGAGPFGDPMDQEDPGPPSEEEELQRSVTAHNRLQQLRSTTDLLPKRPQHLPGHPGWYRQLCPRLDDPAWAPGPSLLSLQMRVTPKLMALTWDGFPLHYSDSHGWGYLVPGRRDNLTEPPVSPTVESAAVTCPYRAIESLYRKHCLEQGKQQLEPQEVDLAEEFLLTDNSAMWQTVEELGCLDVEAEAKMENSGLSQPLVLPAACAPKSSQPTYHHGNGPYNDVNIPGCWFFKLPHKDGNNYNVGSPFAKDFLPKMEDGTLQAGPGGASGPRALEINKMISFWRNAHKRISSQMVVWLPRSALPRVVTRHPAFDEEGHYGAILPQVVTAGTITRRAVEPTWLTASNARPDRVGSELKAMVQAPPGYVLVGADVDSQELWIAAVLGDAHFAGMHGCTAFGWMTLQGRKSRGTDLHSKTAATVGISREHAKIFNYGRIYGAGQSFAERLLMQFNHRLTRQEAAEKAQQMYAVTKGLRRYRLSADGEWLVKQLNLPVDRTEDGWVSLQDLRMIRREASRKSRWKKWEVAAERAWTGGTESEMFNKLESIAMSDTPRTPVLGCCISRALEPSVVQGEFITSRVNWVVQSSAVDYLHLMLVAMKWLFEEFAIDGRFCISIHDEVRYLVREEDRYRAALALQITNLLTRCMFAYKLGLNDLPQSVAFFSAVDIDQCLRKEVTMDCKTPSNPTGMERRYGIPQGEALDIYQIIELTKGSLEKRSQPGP

The list shows a part of the results. Most values lie at the level of the controls, where differences are scatter.

Compound in this assay: CN[C@@H]1C[C@H]2O[C@@](C)([C@@H]1OC)n1c3ccccc3c3c4c(c5c6ccccc6n2c5c31)C(=O)NC4 [staurosporine]
As to the kind of experiment: log2 fold change of tryptic peptide abundance, ligand vs vehicle (limited proteolysis) (log2 ratio); higher = more trypsin-susceptible (destabilized). Conditions: ligand concentration: 20 uM; sample: mouse liver crude lysate; replicate design: treated separately.
Turning to “UniProt P58501 (peptide sequence: NSIGCSDVEKR, peptide start residue: 868)”, the log2 fold change amounted to 0.522. As to “UniProt P56873 (peptide sequence: ACAEALGSLK, peptide start residue: 186)”, the log2 fold change is -0.045. As for “UniProt P54726 (peptide sequence: ILSDDVPIKEYHIDEK, peptide start residue: 54)”, the figure is -0.51; as for “UniProt P54276 (peptide sequence: MAHVSKFDR, peptide start residue: 498)”, -0.45.

For “UniProt P54099 (peptide sequence: LSADGEWLVK, peptide start residue: 976)”, the log2 fold change is 0.217.
